For 1 substance, binding results are on record in publication PMC11742887.

Sequences of proteins named here, by UniProt entry; tags and fusion partners are left off.
UniProt Q60899: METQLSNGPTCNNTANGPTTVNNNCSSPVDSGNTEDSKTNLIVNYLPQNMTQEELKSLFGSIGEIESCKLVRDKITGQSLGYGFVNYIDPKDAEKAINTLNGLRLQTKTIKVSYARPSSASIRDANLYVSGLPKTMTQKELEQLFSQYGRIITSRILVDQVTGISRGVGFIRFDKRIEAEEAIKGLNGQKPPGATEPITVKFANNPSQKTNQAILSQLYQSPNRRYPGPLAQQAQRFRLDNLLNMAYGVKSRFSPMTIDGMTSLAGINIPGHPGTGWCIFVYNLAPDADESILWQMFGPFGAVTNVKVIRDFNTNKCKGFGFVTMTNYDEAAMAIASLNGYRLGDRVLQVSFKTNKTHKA
UniProt Q9Z1R3: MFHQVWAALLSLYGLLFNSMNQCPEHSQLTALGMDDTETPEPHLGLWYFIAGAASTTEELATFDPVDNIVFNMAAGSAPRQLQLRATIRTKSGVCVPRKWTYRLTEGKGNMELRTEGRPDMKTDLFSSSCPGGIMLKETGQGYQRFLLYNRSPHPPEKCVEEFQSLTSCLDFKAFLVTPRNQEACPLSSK

Assay [1] addresses Elavl2 (mouse (endogenous in C17.2)) (UniProt Q60899). Nature of the assay: co-IP; endogenous Co-IP in C17.2 lysate; ApoM or Elavl2 antibody on Protein G magnetic beads, overnight at 4 °C, IgG as negative control, read by immunoblotting.
Assay [2] addresses Elavl2-Myc (UniProt Q60899). The experiment in a line: co-IP; exogenous Co-IP in lysate of C17.2 cells transfected with Vector or Elavl2-Myc; antibody (Myc antibody listed) on Protein G magnetic beads, overnight at 4 °C, read by immunoblotting. In general terms: A western blot detects proteins with antibodies after separation by electrophoresis.

These are yes or no findings as the source states them, for the method shown. Binding seen in cells or lysates may run through a third protein. Some results given as binding are weak or reduced against the parent protein; the word gives no strength.

In the case of “apolipoprotein M (ApoM) (from UniProt Q9Z1R3 1-190)”, the binding result in assay [1] and in assay [2] was “binds” in each case.
